Some entries repeat one wording, which the source may state once for all of them.
Experiment: Ninhydrin test for detection of Pd0-mediated deprotected histamine
Conditions: 100 μM, 1 mg Pd0 resin in PBS, 37° C., 24 h; compared to Pd-resin+DMSO

SMILES	ninhydrin test (free primary amine, O.D. 570 nm)
C#CCOc1ccc(COC(=O)NCCc2c[nH]cn2)cc1 [pPOBC-Hist, 4-proparglyoxybenzylcarbamoyl Histamine]	primary amines were detected
C#CCOc1ccccc1COC(=O)NCCc1c[nH]cn1 [oPOBC-Hist, 2-proparglyoxybenzylcarbamoyl Histamine]	primary amines were detected
Cl.Cl.NCCc1c[nH]cn1 [Histamine, 2-(4-Imidazolyl)ethylamine dihydrochloride, reference compound]	primary amines were detected

— patent US20200289554A1, “BIOORTHOGONAL COMPOUNDS COMPRISING A PROPARGYL GROUP FOR TREATING CANCER” (THE UNIVERSITY COURT OF THE UNIVERSITY OF EDINBURGH, priority 2016, published 2020)
